# Where a name gives a salt, the structure may show the parent alone. The list shows a part of the results. No stated cut-off is given here; in the data, active = 2.5 or more and inactive = the rest. This data set is noisy: repeats of one test often differ as much as different tests do.
# System: Lgr5 (MarsCy1-Lgr5-EGFP, U2OS)
# Assay: cell-surface Lgr5 expression (SCi1 fluorescence, background-subtracted) relative to WT control (fold of WT control); higher = more Lgr5 at the plasma membrane
# Conditions: U2OS MarsCy1-Lgr5-EGFP stable; treatment time: overnight; library: Prestwick; 20 µM
row,Compound,cell-surface Lgr5 expression
1,c1ccc2c(c1)OCC(C1=NCCN1)O2 (configuration not stated) [Idazoxan hydrochloride],inactive: 1.86
2,C=C1C/C(=C/C)C(=O)O[C@@H]2CCN3CC=C(COC(=O)[C@]1(C)O)[C@H]23 [Seneciphylline],inactive: 1.87
3,COc1cc2c(c(OC)c1OC)-c1ccc(OC)c(=O)cc1[C@@H](NC(C)=O)CC2 [Colchicine],inactive: 2.02
4,C[C@H]1O[C@@H](O[C@H]2CC[C@]3(C=O)[C@H]4CC[C@]5(C)[C@@H](C6=CC(=O)OC6)CC[C@]5(O)[C@@H]4CC[C@]3(O)C2)C[C@H](O)[C@@H]1O [Helveticoside],inactive: 1.01
5,"COc1ccc2c(c1OC)CN1CCc3cc4c(cc3C1C2)OCO4 (configuration not stated) [(d,l)-Tetrahydroberberine]",inactive: 1.77
6,CN1CCc2cc3c(cc2[C@H]1[C@@H]1OC(=O)c2c1ccc1c2OCO1)OCO3 [Bicuculline (+)],active: 3.88
7,Oc1ccc2c3c1O[C@H]1[C@@H](O)CC[C@@]4(O)[C@@H](C2)N(CC2CCC2)CC[C@]314 [Nalbuphine hydrochloride],inactive: 1.07
8,COC1=CC(=O)O[C@@H](/C=C/c2ccccc2)C1 [Kawain],inactive: 1.22
9,CN1C[C@H](CNC(=O)OCc2ccccc2)C[C@@H]2c3cccc4c3c(cn4C)C[C@H]21 [Metergoline],inactive: 1.26
10,CC(=O)O[C@H]1CC[C@@]2(C)C(=CC[C@@H]3[C@@H]2CC[C@]2(C)C(=O)CC[C@@H]32)C1 [Dehydroisoandosterone 3-acetate],active: 3.19
11,O=C(NCNC(=O)NC1C(=O)NC(=O)N1CO)NC1C(=O)NC(=O)N1CO (configuration not stated) [Imidurea],inactive: 2.08
12,CCCN1CCC[C@@H]2Cc3n[nH]cc3C[C@H]21 [(-)-Quinpirole hydrochloride],inactive: 1.3
13,C[C@]12CC[C@H](O)C[C@H]1CC[C@@H]1[C@@H]2CC[C@]2(C)[C@@H](C3=CC(=O)OC3)CC[C@]12O [Digitoxigenin],inactive: 0.472
14,CC(C)c1cccc(C(C)C)c1O [Propofol],inactive: 1.99
15,CCOC(=O)c1cncn1[C@H](C)c1ccccc1 [Etomidate],inactive: 1
16,CCN1C[C@]2(COC)CC[C@H](O)[C@]34C1[C@@](O)([C@@H](OC)[C@H]23)[C@@]1(O)C[C@H](OC)[C@H]2C[C@@H]4[C@@H]1[C@H]2OC [Delsoline],inactive: 1.94
17,O=[N+]([O-])O[C@H]1CO[C@H]2[C@@H]1OC[C@H]2O[N+](=O)[O-] [Isosorbide dinitrate],inactive: 1.9

# Two entries drawn at random from the list so far:
row,Compound,cell-surface Lgr5 expression
4,C[C@H]1O[C@@H](O[C@H]2CC[C@]3(C=O)[C@H]4CC[C@]5(C)[C@@H](C6=CC(=O)OC6)CC[C@]5(O)[C@@H]4CC[C@]3(O)C2)C[C@H](O)[C@@H]1O [Helveticoside],inactive: 1.01
8,COC1=CC(=O)O[C@@H](/C=C/c2ccccc2)C1 [Kawain],inactive: 1.22

# From the supplement of paper PMC4683952
